Experimental data from publication PMC6370856, “Peptidyl prolyl cis/trans isomerase activity on the cell surface correlates with extracellular matrix development” (Communications Biology, 2019).

Test system: collagen hydrogel (Type I, rat-tail)
Assay: Step-strain rheological measurement, self-healing of collagen hydrogel
Conditions: 9 micromolar CypA
Description: Another important feature of the dynamic ECMs is their self-healing property, which can be tested using a step-strain rheological measurement. A strong strain is applied to liquify the materials, and the recovery of storage modulus is followed (self-healing) (Fig. 1b). Collagen hydrogel can only partially recover its storage modulus after the first cycle. The rate and extent of recovery were unchanged over the following cycles.
To minimize sample evaporation at 37 °C, a tissue paper wet in HEPEs buffer (10 mM, pH 7.8) was placed inside the H-PTD chamber to increase the humidity. […] The cone and plate were treated with plasma for 5 min to increase the hydrophilicity of the metal surface.

## CypA: recombinant cyclophilin A, a PPIase, expressed in E. coli
Time 0.5 min
  Storage Modulus, Mean: 15.8208 Pa
Time 1 min
  Storage Modulus, Mean: 15.8171 Pa
Time 2 min
  Storage Modulus, Mean: 15.8368 Pa
Time 2.5 min
  Storage Modulus, Mean: 16.0989 Pa
Time 3 min
  Storage Modulus, Mean: 16.9639 Pa
Time 3.5 min
  Storage Modulus, Mean: 16.2233 Pa
Time 4 min
  Storage Modulus, Mean: 16.0579 Pa
Time 4.5 min
  Storage Modulus, Mean: 16.7853 Pa
Time 5 min
  Storage Modulus, Mean: 16.3104 Pa
Time 6 min
  Storage Modulus, Mean: 16.724 Pa
Time 6.5 min
  Storage Modulus, Mean: 16.2024 Pa
Time 7 min
  Storage Modulus, Mean: 16.3448 Pa
Time 7.5 min
  Storage Modulus, Mean: 15.9378 Pa
Time 8 min
  Storage Modulus, Mean: 15.9026 Pa
Time 8.5 min
  Storage Modulus, Mean: 16.142 Pa
Time 9 min
  Storage Modulus, Mean: 16.5007 Pa
Time 9.5 min
  Storage Modulus, Mean: 15.7601 Pa
Time 10 min
  Storage Modulus, Mean: 16.2878 Pa
Time 11 min
  Storage Modulus, Mean: 16.414 Pa
Time 12 min
  Storage Modulus, Mean: 16.3967 Pa
Time 12.5 min
  Storage Modulus, Mean: 15.8247 Pa
Time 13 min
  Storage Modulus, Mean: 16.2827 Pa
Time 14 min
  Storage Modulus, Mean: 16.0204 Pa
Time 15 min
  Storage Modulus, Mean: 15.8554 Pa
Time 15.5 min
  Storage Modulus, Mean: 16.1419 Pa
Time 16 min
  Storage Modulus, Mean: 15.41 Pa
Time 16.5 min
  Storage Modulus, Mean: 15.9689 Pa
Time 17 min
  Storage Modulus, Mean: 15.5457 Pa
Time 17.5 min
  Storage Modulus, Mean: 16.4414 Pa
Time 18 min
  Storage Modulus, Mean: 16.5892 Pa
Time 18.5 min
  Storage Modulus, Mean: 16.3366 Pa
Time 19 min
  Storage Modulus, Mean: 16.287 Pa
Time 19.5 min
  Storage Modulus, Mean: 16.3668 Pa
Time 20 min
  Storage Modulus, Mean: 16.8513 Pa
Time 20.5 min
  Storage Modulus, Mean: 15.8908 Pa
Time 21 min
  Storage Modulus, Mean: 16.4657 Pa
Time 22 min
  Storage Modulus, Mean: 16.3069 Pa
Time 22.5 min
  Storage Modulus, Mean: 16.1892 Pa
Time 23 min
  Storage Modulus, Mean: 16.1259 Pa
Time 23.5 min
  Storage Modulus, Mean: 15.8073 Pa
Time 24 min
  Storage Modulus, Mean: 16.0524 Pa
Time 24.5 min
  Storage Modulus, Mean: 16.266 Pa
Time 25 min
  Storage Modulus, Mean: 16.0275 Pa
Time 25.5 min
  Storage Modulus, Mean: 16.6294 Pa
Time 26 min
  Storage Modulus, Mean: 16.1748 Pa
Time 26.5 min
  Storage Modulus, Mean: 16.2368 Pa
Time 27 min
  Storage Modulus, Mean: 15.9059 Pa
Time 27.5 min
  Storage Modulus, Mean: 16.5214 Pa
Time 28 min
  Storage Modulus, Mean: 16.7548 Pa
Time 28.5 min
  Storage Modulus, Mean: 16.4739 Pa
Time 29 min
  Storage Modulus, Mean: 16.2691 Pa
Time 29.5 min
  Storage Modulus, Mean: 16.3279 Pa
Time 30 min
  Storage Modulus, Mean: 16.2533 Pa
Time 30.167 min
  Storage Modulus, Mean: 1.444 Pa
Time 30.333 min
  Storage Modulus, Mean: 1.239 Pa
Time 30.5 min
  Storage Modulus, Mean: 1.099 Pa
Time 30.667 min
  Storage Modulus, Mean: 1.033 Pa
Time 30.833 min
  Storage Modulus, Mean: 0.9888 Pa
Time 31 min
  Storage Modulus, Mean: 0.9512 Pa
Time 31.167 min
  Storage Modulus, Mean: 0.9204 Pa
Time 31.333 min
  Storage Modulus, Mean: 0.8959 Pa
Time 31.5 min
  Storage Modulus, Mean: 0.8733 Pa
Time 31.667 min
  Storage Modulus, Mean: 0.854 Pa
Time 32.167 min
  Storage Modulus, Mean: 3.488 Pa
Time 32.667 min
  Storage Modulus, Mean: 4.741 Pa
Time 33.167 min
  Storage Modulus, Mean: 5.134 Pa
Time 33.667 min
  Storage Modulus, Mean: 4.579 Pa
Time 34.167 min
  Storage Modulus, Mean: 4.88 Pa
Time 34.667 min
  Storage Modulus, Mean: 5.921 Pa
Time 35.167 min
  Storage Modulus, Mean: 5.466 Pa
Time 35.667 min
  Storage Modulus, Mean: 5.258 Pa
Time 36.167 min
  Storage Modulus, Mean: 5.593 Pa
Time 36.667 min
  Storage Modulus, Mean: 5.387 Pa
Time 37.167 min
  Storage Modulus, Mean: 5.773 Pa
Time 37.667 min
  Storage Modulus, Mean: 5.997 Pa
Time 38.167 min
  Storage Modulus, Mean: 5.482 Pa
Time 38.667 min
  Storage Modulus, Mean: 5.375 Pa
Time 39.167 min
  Storage Modulus, Mean: 5.844 Pa
Time 39.667 min
  Storage Modulus, Mean: 5.739 Pa
Time 40.167 min
  Storage Modulus, Mean: 5.438 Pa
Time 40.667 min
  Storage Modulus, Mean: 5.765 Pa
Time 41.167 min
  Storage Modulus, Mean: 5.463 Pa
Time 41.667 min
  Storage Modulus, Mean: 6.012 Pa
Time 42.167 min
  Storage Modulus, Mean: 5.41 Pa
Time 42.667 min
  Storage Modulus, Mean: 6.2431 Pa
Time 43.667 min
  Storage Modulus, Mean: 6.226 Pa
Time 44.167 min
  Storage Modulus, Mean: 5.9794 Pa
Time 44.667 min
  Storage Modulus, Mean: 5.985 Pa
Time 45.167 min
  Storage Modulus, Mean: 6.374 Pa
Time 45.667 min
  Storage Modulus, Mean: 6.469 Pa
Time 46.167 min
  Storage Modulus, Mean: 6.238 Pa
Time 46.667 min
  Storage Modulus, Mean: 6.48 Pa
Time 47.167 min
  Storage Modulus, Mean: 6.245 Pa
Time 47.667 min
  Storage Modulus, Mean: 6.264 Pa
Time 48.167 min
  Storage Modulus, Mean: 6.061 Pa
Time 48.667 min
  Storage Modulus, Mean: 6.129 Pa
Time 49.167 min
  Storage Modulus, Mean: 6.359 Pa
Time 49.667 min
  Storage Modulus, Mean: 6.635 Pa
Time 50.167 min
  Storage Modulus, Mean: 6.729 Pa
Time 50.667 min
  Storage Modulus, Mean: 6.587 Pa
Time 51.167 min
  Storage Modulus, Mean: 6.539 Pa
Time 52.167 min
  Storage Modulus, Mean: 6.7034 Pa
Time 52.667 min
  Storage Modulus, Mean: 6.721 Pa
Time 53.167 min
  Storage Modulus, Mean: 6.093 Pa
Time 53.667 min
  Storage Modulus, Mean: 6.47 Pa
Time 54.167 min
  Storage Modulus, Mean: 6.616 Pa
Time 54.667 min
  Storage Modulus, Mean: 6.384 Pa
Time 55.167 min
  Storage Modulus, Mean: 6.562 Pa
Time 55.667 min
  Storage Modulus, Mean: 6.487 Pa
Time 56.167 min
  Storage Modulus, Mean: 6.459 Pa
Time 56.667 min
  Storage Modulus, Mean: 6.476 Pa
Time 57.167 min
  Storage Modulus, Mean: 6.693 Pa
Time 57.667 min
  Storage Modulus, Mean: 6.141 Pa
Time 58.167 min
  Storage Modulus, Mean: 6.373 Pa
Time 58.67 min
  Storage Modulus, Mean: 6.398 Pa
Time 59.17 min
  Storage Modulus, Mean: 6.773 Pa
Time 59.67 min
  Storage Modulus, Mean: 6.841 Pa
Time 60.17 min
  Storage Modulus, Mean: 6.995 Pa
Time 60.67 min
  Storage Modulus, Mean: 6.318 Pa
Time 61.17 min
  Storage Modulus, Mean: 6.74 Pa
Time 61.67 min
  Storage Modulus, Mean: 6.619 Pa
Time 61.83 min
  Storage Modulus, Mean: 1.042 Pa
Time 62 min
  Storage Modulus, Mean: 0.9812 Pa
Time 62.17 min
  Storage Modulus, Mean: 0.9146 Pa
Time 62.33 min
  Storage Modulus, Mean: 0.8895 Pa
Time 62.5 min
  Storage Modulus, Mean: 0.8547 Pa
Time 62.67 min
  Storage Modulus, Mean: 0.8377 Pa
Time 62.83 min
  Storage Modulus, Mean: 0.8254 Pa
Time 63 min
  Storage Modulus, Mean: 0.8121 Pa
Time 63.17 min
  Storage Modulus, Mean: 0.8015 Pa
Time 63.33 min
  Storage Modulus, Mean: 0.7955 Pa
Time 63.83 min
  Storage Modulus, Mean: 3.439 Pa
Time 64.33 min
  Storage Modulus, Mean: 3.995 Pa
Time 64.83 min
  Storage Modulus, Mean: 3.976 Pa
Time 65.83 min
  Storage Modulus, Mean: 5.213 Pa
Time 66.33 min
  Storage Modulus, Mean: 4.959 Pa
Time 66.83 min
  Storage Modulus, Mean: 4.809 Pa
Time 67.33 min
  Storage Modulus, Mean: 5.182 Pa
Time 67.83 min
  Storage Modulus, Mean: 4.855 Pa
Time 68.33 min
  Storage Modulus, Mean: 4.872 Pa
Time 68.83 min
  Storage Modulus, Mean: 5.037 Pa
Time 69.33 min
  Storage Modulus, Mean: 5.3734 Pa
Time 69.83 min
  Storage Modulus, Mean: 5.191 Pa
Time 70.33 min
  Storage Modulus, Mean: 4.815 Pa
Time 70.83 min
  Storage Modulus, Mean: 5.539 Pa
Time 71.33 min
  Storage Modulus, Mean: 5.01 Pa
Time 71.83 min
  Storage Modulus, Mean: 5.823 Pa
